According to publication doi:10.1101/2024.01.31.578135:

Assays:
Test in all cases: co-IP
[1] = molecular target: C-terminally triple HA-tagged Tb927.8.7010 (Trypanosoma brucei) (UniProt Q57YQ8)
[2] = molecular target: C-terminally triple HA-tagged TbTim15 (Trypanosoma brucei) (UniProt Q586P9)
[3] = molecular target: C-terminally triple HA-tagged TbTim20 (Trypanosoma brucei) (UniProt Q386Z2)
[4] = molecular target: truncated myc-tagged mitochondrial carrier protein 12 (MCP12ΔI-myc) (Trypanosoma brucei) (UniProt Q388W2)

Substance	binding [1]	binding [2]	binding [3]	binding [4]
TbPam27 (from UniProt Q388L6)	binds	binds	binds	
TbTim15 (Tb927.2.4445) (from UniProt Q586P9)				binds

These are yes or no findings as the source states them, for the method shown. Binding seen in cells or lysates may run through a third protein. Binding calls can cover weak binding; strength is not graded here.
